Values of other authors, collected in US10188733B2 (priority 2010, dated 2019).
For at least one compound, name, drawing or mass did not settle the structure.

Conditions: Berenson et al. 2002; cited from earlier work

O=P(O)(O)C(O)(Cn1ccnc1)P(=O)(O)O [zoledronic acid]
anti-resorptive potency relative to older agents such as etidronate: 10,000 100,000
